Source: publication PMC10494373

T1: catalase (CAT) (mouse (endogenous in mouse bone marrow-derived EPCs)) (UniProt P24270)
T1 sequence: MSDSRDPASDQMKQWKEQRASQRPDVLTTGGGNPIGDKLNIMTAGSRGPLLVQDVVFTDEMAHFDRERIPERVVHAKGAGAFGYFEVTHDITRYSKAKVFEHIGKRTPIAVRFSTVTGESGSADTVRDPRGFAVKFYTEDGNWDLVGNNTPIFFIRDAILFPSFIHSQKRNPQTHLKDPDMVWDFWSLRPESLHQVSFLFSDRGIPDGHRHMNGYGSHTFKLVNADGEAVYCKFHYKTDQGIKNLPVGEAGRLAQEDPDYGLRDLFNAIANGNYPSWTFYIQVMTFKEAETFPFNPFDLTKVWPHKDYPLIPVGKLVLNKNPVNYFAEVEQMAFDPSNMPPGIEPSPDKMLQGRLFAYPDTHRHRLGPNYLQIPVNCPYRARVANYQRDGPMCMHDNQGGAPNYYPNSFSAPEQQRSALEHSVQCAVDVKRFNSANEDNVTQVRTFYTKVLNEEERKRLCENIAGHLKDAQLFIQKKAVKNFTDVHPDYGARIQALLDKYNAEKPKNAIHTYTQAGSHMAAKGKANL

B1: catalase (CAT) (enzyme, UniProt P24270 1-527)
chain: MSDSRDPASDQMKQWKEQRASQRPDVLTTGGGNPIGDKLNIMTAGSRGPLLVQDVVFTDEMAHFDRERIPERVVHAKGAGAFGYFEVTHDITRYSKAKVFEHIGKRTPIAVRFSTVTGESGSADTVRDPRGFAVKFYTEDGNWDLVGNNTPIFFIRDAILFPSFIHSQKRNPQTHLKDPDMVWDFWSLRPESLHQVSFLFSDRGIPDGHRHMNGYGSHTFKLVNADGEAVYCKFHYKTDQGIKNLPVGEAGRLAQEDPDYGLRDLFNAIANGNYPSWTFYIQVMTFKEAETFPFNPFDLTKVWPHKDYPLIPVGKLVLNKNPVNYFAEVEQMAFDPSNMPPGIEPSPDKMLQGRLFAYPDTHRHRLGPNYLQIPVNCPYRARVANYQRDGPMCMHDNQGGAPNYYPNSFSAPEQQRSALEHSVQCAVDVKRFNSANEDNVTQVRTFYTKVLNEEERKRLCENIAGHLKDAQLFIQKKAVKNFTDVHPDYGARIQALLDKYNAEKPKNAIHTYTQAGSHMAAKGKANL

Tests used:
[1] = target: T1, catalase (CAT) (mouse (endogenous in mouse bone marrow-derived EPCs)); assay: co-IP; total protein of treated EPCs (2 x 10^7) in RIPA lysis buffer, precleared with rabbit IgG and Protein A+G agarose; IP with rabbit anti-catalase overnight at 4 C and blot with anti-p20, and the reverse (blot with anti-catalase)
[2] = target: active caspase-1 (p20) (mouse (endogenous in mouse bone marrow-derived EPCs)); assay: as above

Molecule | binding [1] | binding [2]
active caspase-1 (p20) (enzyme) | binds | 
B1 |  | binds

No constants are given. Whether binding was seen depends on the method and setting. In cells and extracts the contact can be indirect. A result given as binding can be weak or reduced; the word gives no strength.
